# Measurements reported in PubChem BioAssay AID588590 (National Center for Advancing Translational Sciences (NCATS), 2011).
# Sequences of proteins named here, by UniProt entry; tags and fusion partners are left off. A change or cut given only in a name is not applied to a line headed by its entry.
# UniProt Q9UNA4: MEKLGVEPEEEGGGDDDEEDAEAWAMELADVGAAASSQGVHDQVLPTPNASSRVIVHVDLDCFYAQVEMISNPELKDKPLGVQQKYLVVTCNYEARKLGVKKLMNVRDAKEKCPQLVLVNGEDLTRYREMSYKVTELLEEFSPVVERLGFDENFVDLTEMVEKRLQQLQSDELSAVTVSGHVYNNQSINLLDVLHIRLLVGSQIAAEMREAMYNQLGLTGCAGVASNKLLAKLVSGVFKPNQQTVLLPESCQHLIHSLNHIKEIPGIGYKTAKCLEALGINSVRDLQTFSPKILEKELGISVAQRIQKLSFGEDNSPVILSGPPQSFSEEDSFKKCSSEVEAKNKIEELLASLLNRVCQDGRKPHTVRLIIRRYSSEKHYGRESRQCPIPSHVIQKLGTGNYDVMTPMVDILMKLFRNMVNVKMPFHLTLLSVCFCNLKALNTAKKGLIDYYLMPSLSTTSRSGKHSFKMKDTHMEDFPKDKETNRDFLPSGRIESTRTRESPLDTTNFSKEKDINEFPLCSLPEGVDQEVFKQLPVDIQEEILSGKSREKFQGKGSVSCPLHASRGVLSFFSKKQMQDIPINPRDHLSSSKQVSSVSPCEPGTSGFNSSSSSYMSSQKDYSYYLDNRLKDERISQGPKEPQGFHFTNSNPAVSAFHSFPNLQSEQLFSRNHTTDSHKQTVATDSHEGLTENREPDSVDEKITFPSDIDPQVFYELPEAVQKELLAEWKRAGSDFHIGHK
# Values joined by “and” are separate entries in the source; they are usually repeats but may differ in a detail not shown here. Identical values can stand only once. Out of some 390,000 compounds screened, about 4,000 (1%) were called active. Inconclusive results, whose numbers are uncertain, are shown with a selection of clear calls. Calls follow the shape of the dose curve; as a rule, active = well fitted inhibition curve with a large enough effect; inconclusive = small, poorly fitted or top-dose-only effect, or another doubt; inactive = no such curve, though single readings can be large or run the other way. Potencies of inconclusive entries are doubtful fits and often do not repeat. Some structures have more than one record in an assay (separate samples or runs), and their calls can disagree.
# Biological target: DNA polymerase iota (Homo sapiens) (UniProt Q9UNA4)
# Assay: qHTS for Inhibitors of Polymerase Iota
# Conditions: Pol iota fluorescent replication assay, 10 min; series mostly up to 115 µM; activity, negative = inhibition: at the top concentration
# Outline: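 Pol iota at 10 nM preincubated 15 min with compounds at room temperature; reaction started with fluorescent substrate, 50 nM final. Fluorescence read kinetically at 0 and 10 min; buffer-only wells as negative control.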
# Potency is read from the fitted curve at half-maximal effect.
Structure (SMILES),Potency,"activity, negative = inhibition"
CCc1cccc(CC)c1NC(=O)C1CC(=O)N(c2ccc3c(c2)OCCO3)C1 (stereo unspecified),"inconclusive: 89.1 µM [inhibitor, single point]",
COc1cc(NC(=O)CCCc2c[nH]c3ccccc23)cc(OC)c1,"inconclusive: 2.82 µM [inhibitor, full curve, poor fit]",
CCN(c1ccccc1)c1nc(N)nc(C#N)n1,,inactive: 5.63%
CCN1CCN(C(=O)c2cc3sccc3n2CC(=O)c2ccccc2)CC1,"inconclusive: 89.1 µM [inhibitor, partial curve, poor fit]",
COc1ccc(/C=C2/C(=O)N=C3SCCN32)cc1,"inconclusive: 11.2 µM [inhibitor, partial curve, poor fit]",
CC(C)CCNC(=O)C1CC(=O)N(CCc2ccccc2)C1 (stereo unspecified),"inconclusive: 79.4 µM [inhibitor, partial curve, poor fit]",
NC(=O)CSc1nccn1Cc1ccc2c(c1)OCO2,,inactive: 16.7%
COc1cc(OC)c(/C=C/c2ccc3ccccc3n2)c(OC)c1,"inconclusive: 39.8 µM [inhibitor, partial curve]",
Cn1c(-c2sc3ccccc3c2Cl)n[nH]c1=S,,inactive: 3.42%
Cc1nn(-c2ccccc2)c(C)c1C(=O)OCc1ccc(C#N)cc1,"inconclusive: 2.82 µM [inhibitor, full curve, poor fit]",
COc1ccc(OC)c(/C=C/C(=O)c2ccc3c(c2)OCCO3)c1,"inconclusive: 25.1 µM [inhibitor, single point]",
CN(C(=O)c1cc2ccccc2oc1=O)C1(C)CCS(=O)(=O)C1 (stereo unspecified),,inactive: 38.2%
O=C(c1cc2cc([N+](=O)[O-])ccc2oc1=O)N1CCN(c2ncccn2)CC1,"inconclusive: 126 µM [inhibitor, single point]",
O=C(Cn1nnc2sc3c(c2c1=O)CCCC3)Nc1ccc(F)c(Cl)c1,"inconclusive: 89.1 µM [inhibitor, single point]",
N#Cc1ccccc1NC(=O)CSc1nnc(-c2ccccc2)n1-c1ccccc1,"inconclusive: 28.2 µM [inhibitor, single point]",
Cc1ncc(CO)c2c1Oc1nc(-c3ccccc3)nc(SCC(=O)Nc3cccc(O)c3)c1C2,"inconclusive: 39.8 µM [inhibitor, single point]",
COc1ccc(OC)c(/C=N/NC(=O)C(=O)N/N=C/c2cc(OC)ccc2OC)c1,"inconclusive: 56.2 µM [inhibitor, partial curve, poor fit]",
S=C(NCC1CCCCC1)Nc1ccc(Oc2ccccc2)cc1,,inactive: 13.7%
O=C(CSc1ccc(Cl)cc1)Nc1cccc(-c2nc3ccccc3[nH]2)c1,"inconclusive: 63.1 µM [inhibitor, partial curve, poor fit]",
O=C(Nc1ccc2oc(-c3ccc(Cl)c(Cl)c3)nc2c1)c1ncn[nH]1,"inconclusive: 25.1 µM [inhibitor, partial curve, poor fit]",
Oc1ccc(-c2csc(-c3cccnc3)n2)cc1O,active: 28.2 µM,
O=C1/C(=C/Nc2ccc3c(c2)OCO3)CCc2ccccc21,"inconclusive: 8.91 µM [inhibitor, partial curve, poor fit]",

Structure (SMILES),Potency,"activity, negative = inhibition"
COCCNC(=O)/C(C#N)=C/c1cccc(/C=C(\C#N)C(=O)NCCOC)c1,,inactive: 116%
CCOC(=O)c1ccccc1NC1(c2ccc(OC)cc2)C(=O)c2ccccc2C1=O,"inconclusive: 79.4 µM [inhibitor, partial curve]",
Cc1ccc2c(c1)c(N=Nc1cccc(C(=O)O)c1)c(O)n2C,"inconclusive: 79.4 µM [inhibitor, partial curve, poor fit]",
CCCOc1ccc(-c2nn(-c3ccccc3)cc2/C=C2\SC(=S)N(C3CCS(=O)(=O)C3)C2=O)cc1 (stereo unspecified),"inconclusive: 89.1 µM [inhibitor, partial curve]",
Nc1ccc(-c2nc3cc(N)ccc3s2)cc1,,inactive: 139%
Cc1cc(SCC(=O)c2ccc(Br)cc2)cc(C)[o+]1,"inconclusive: 25.1 µM [inhibitor, full curve]",
O=C(NCc1ccc(Cl)cc1)C(=O)NCC(c1ccco1)S(=O)(=O)c1cccs1 (stereo unspecified),,inactive: 10.3%
O=C(N/N=C/c1ccccc1O)c1cccc(C(F)(F)F)c1,"inconclusive: 79.4 µM [inhibitor, partial curve]",
CC(=O)Nc1ccc(C(=O)CSc2nnc3cc(C)c4ccccc4n23)cc1,,inactive: 39%
O=C(CSCc1cccc(CSCC(=O)Nc2ccc3ccccc3c2)n1)Nc1ccc2ccccc2c1,"inconclusive: 22.4 µM [inhibitor, single point]",
Cc1nc2ccc3nc(NC(=O)c4ccc5c(c4)OCCO5)sc3c2s1,"inconclusive: 63.1 µM [inhibitor, partial curve, poor fit]",
CC(N)=Nc1ccc([N+](=O)[O-])cc1,,inactive: 14.9%
O=C(Nc1ccc(C(F)(F)F)cc1)C1CC(=O)N(c2ccc3c(c2)OCCO3)C1 (stereo unspecified),"inconclusive: 12.6 µM [inhibitor, partial curve, poor fit]",
CC(C)Oc1cccc(C(=O)NC(=S)Nc2ccc(Cl)c(C(=O)O)c2)c1,"inconclusive: 1.58 µM [inhibitor, full curve, poor fit]",
C#CCn1cc(/C=N/NC(=O)COc2cccc3cccnc23)c2ccccc21,active: 22.4 µM,
CN(CCOc1ccccc1)C(=O)c1ccc(Cl)c(S(=O)(=O)N2CCCCC2)c1,,inactive: 7.79%
COc1ccc([C@H]2Cc3cc(O)cc(O)c3C(=O)O2)cc1O,"inconclusive: 35.5 µM [inhibitor, full curve, poor fit]",
Cc1nc2nc(C)c(CCC(=O)NCCCN3CCN(c4cccc(Cl)c4)CC3)c(C)n2n1,inactive and active: 31.6 µM,
CCN(CC(=O)Nc1ccc(N2CCOCC2)cc1)CC(=O)NC(C)(C)C,,inactive: 27.2%
N#Cc1cc2c(nc1SCC(=O)Nc1sc3c(c1C#N)CCC3)CCCCC2,"inconclusive: 50.1 µM [inhibitor, partial curve, poor fit]",
COc1cccc(Nc2ncnc3c2cnn3-c2cccc(C)c2)c1,"inconclusive: 100 µM [inhibitor, partial curve, poor fit]",
COc1ccc(C2NC(=O)C(C#N)=C(S)N2c2ccc(C)cc2)cc1OC (stereo unspecified),"inconclusive: 39.8 µM [inhibitor, single point]",

Structure (SMILES),Potency,"activity, negative = inhibition"
N#Cc1c(NC(=O)/C=C/C(=O)O)sc2c1CCN(Cc1ccccc1)C2,,inactive: -27.2%
Cc1cc(=O)n2c(C(=O)Nc3ccc(C(=O)OC(C)C)cc3)c(C(=O)Nc3ccccc3)sc2n1,"inconclusive: 31.6 µM [inhibitor, partial curve]",
COC(=O)c1c(NC(=O)C2CC=CCC2C(=O)O)sc(C)c1C (stereo unspecified),,inactive: 29.7%
CCCc1cc(C(=O)N2CCN(C(c3ccccc3)c3ccccc3)CC2)no1,"inconclusive: 79.4 µM [inhibitor, partial curve, poor fit]",
Cc1ccc(C(=O)NCc2ccccn2)cc1NC1=NC2CS(=O)(=O)CC2S1 (stereo unspecified),,inactive: 3.57%
Cc1ccc(/C=C2\C(=N)N3N=C(CC(=O)N4CCCCC4)SC3=NC2=O)cc1,"inconclusive: 63.1 µM [inhibitor, partial curve, poor fit]",
CCc1ccc(NC(=O)Cn2nnc(C(=O)NCc3ccco3)c2N)cc1,"inconclusive: 79.4 µM [inhibitor, single point]",
Nc1nc(NCc2ccco2)nc(NC2CCCCC2)c1[N+](=O)[O-],"inconclusive: 89.1 µM [inhibitor, single point]",
Cc1ccccc1OCc1nnc(SCC(=O)Nc2ccc3nc(SCC(=O)Nc4ccccc4)sc3c2)n1C,"inconclusive: 89.1 µM [inhibitor, partial curve, poor fit]",
CCC1(OC(=O)CN(C)C)C(=O)OCc2c1cc1n(c2=O)Cc2cc3c(N)cccc3nc2-1 (stereo unspecified),active: 8.91 µM,
CCC(=O)Nc1nonc1-c1nc2ccccc2n1N(C(=O)CC)C(=O)CC,"inconclusive: 50.1 µM [inhibitor, partial curve, poor fit]",
CC1(C)OC(=O)C(=Cc2ccc(-c3ccc(S(N)(=O)=O)cc3)o2)C(=O)O1,"inconclusive: 15.8 µM [inhibitor, full curve, poor fit]",
COC(=O)c1ccc(NC(=O)c2nc(S(=O)(=O)Cc3cccc(C)c3)ncc2Cl)cc1,"inconclusive: 28.2 µM [inhibitor, partial curve, poor fit]",
COc1cc(C)c(C)cc1S(=O)(=O)N1CCN(Cc2ccccc2)CC1,"inconclusive: 63.1 µM [inhibitor, full curve, poor fit]",
Cc1cnc(Nc2nc3ccccc3o2)nc1C(=O)Nc1cccc(C(F)(F)F)c1,"inconclusive: 35.5 µM [inhibitor, single point]",
N#Cc1ccccc1Cn1nnc2c(=O)[nH]c(C3CCCN(S(=O)(=O)c4ccc(F)cc4)C3)nc21 (stereo unspecified),,inactive: -7.34%
O=C(Nc1nc2nc(-c3ccccc3)cc(=O)n2[nH]1)c1ccc(F)cc1,,inactive: -6.4%
CC(=O)c1ccc(N2CCN(CC(O)COCc3ccco3)CC2)cc1 (stereo unspecified),"inconclusive: 50.1 µM [inhibitor, single point]",
O=C(Nc1sc2c(c1C(=O)NCc1ccccc1)CCCC2)c1cc(=O)c2cc(Cl)ccc2o1,,inactive: -17.8%
Cc1cccc(C(=O)OCC(=O)Nc2sc3c(c2C#N)CCC3)c1,"inconclusive: 44.7 µM [inhibitor, full curve]",
O=C(CSc1ncnc2sc3c(c12)CCCC3)c1ccco1,"inconclusive: 20 µM [inhibitor, full curve, poor fit]",
O=C1CSC(c2cccc(F)c2)N1c1ccc(O)cc1 (stereo unspecified),"inconclusive: 112 µM [inhibitor, single point]",
